Results of single-concentration screens

Amino acid sequences for entries named in this document (tags omitted). Residues count along the entry.
UniProt Q4DA54, 1-478: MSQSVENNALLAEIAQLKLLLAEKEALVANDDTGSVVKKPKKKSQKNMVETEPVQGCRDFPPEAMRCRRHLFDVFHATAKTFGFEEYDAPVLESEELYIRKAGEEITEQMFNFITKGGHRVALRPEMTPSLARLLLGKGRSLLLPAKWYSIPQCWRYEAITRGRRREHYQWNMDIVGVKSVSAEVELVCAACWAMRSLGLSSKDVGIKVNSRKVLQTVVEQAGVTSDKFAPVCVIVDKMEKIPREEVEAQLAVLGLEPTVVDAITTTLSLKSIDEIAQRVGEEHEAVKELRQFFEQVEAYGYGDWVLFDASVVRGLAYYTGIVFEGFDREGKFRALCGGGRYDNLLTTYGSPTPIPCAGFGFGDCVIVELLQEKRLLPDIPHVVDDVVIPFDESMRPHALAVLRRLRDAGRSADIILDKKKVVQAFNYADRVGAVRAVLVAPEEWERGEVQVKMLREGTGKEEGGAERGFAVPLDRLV
UniProt P9WPC5, whole entry: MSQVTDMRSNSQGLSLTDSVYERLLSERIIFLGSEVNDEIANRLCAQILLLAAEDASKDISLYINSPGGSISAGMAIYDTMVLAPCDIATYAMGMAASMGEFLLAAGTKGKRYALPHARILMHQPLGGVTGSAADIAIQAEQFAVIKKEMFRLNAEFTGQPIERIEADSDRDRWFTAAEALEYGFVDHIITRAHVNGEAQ
UniProt P9WPC3, whole entry partner: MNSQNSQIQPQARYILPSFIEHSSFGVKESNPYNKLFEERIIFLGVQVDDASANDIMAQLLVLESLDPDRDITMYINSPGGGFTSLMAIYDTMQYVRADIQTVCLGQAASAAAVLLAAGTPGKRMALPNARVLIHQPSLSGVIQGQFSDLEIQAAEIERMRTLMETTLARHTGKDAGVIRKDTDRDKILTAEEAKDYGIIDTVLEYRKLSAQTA
UniProt Q8IDJ8, 1-583: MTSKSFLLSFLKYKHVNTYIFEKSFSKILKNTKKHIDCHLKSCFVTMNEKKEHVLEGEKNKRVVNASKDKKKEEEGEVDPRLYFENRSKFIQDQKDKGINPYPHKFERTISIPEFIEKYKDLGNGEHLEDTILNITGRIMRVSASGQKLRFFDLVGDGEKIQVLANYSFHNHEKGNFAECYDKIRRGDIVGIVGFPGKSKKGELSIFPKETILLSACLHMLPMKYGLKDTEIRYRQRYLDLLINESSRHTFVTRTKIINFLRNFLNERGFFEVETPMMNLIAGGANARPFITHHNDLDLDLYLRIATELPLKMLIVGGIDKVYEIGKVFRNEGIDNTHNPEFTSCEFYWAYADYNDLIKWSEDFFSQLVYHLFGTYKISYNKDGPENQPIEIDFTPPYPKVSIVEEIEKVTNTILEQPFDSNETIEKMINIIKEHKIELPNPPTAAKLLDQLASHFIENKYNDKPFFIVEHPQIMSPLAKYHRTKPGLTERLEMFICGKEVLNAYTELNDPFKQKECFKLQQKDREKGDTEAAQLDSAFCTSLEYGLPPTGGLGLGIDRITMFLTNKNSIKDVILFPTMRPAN

Values are the deposited “Percent Effect”, in %. The controls that fix the scale are not given in the record; negative values are as filed. The compounds are a random part of those screened. Two or more numbers in one place are separate tests of the same structure; such repeats can differ widely. A dash means the value is not listed here; it may have been measured.

Leishmania in macrophages: 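Cell assay of Leishmania donovani living inside macrophages; the read-out is not stated. Compounds at 30 µM. Higher reads as stronger inhibition (inferred: compounds with an IC50 in retests scored well above the rest). Size under these conditions: about 69,000 compounds, about 1,000 of them at 50% or above in at least one test.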
TcHisRS: 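Enzyme assay of histidyl-tRNA synthetase; the read-out is not stated. Target: Histidine-tRNA ligase, Trypanosoma cruzi CL Brener (UniProt Q4DA54). Concentration: 30 µM. The record gives no direction; compounds that gave an IC50 in retests scored well above the rest, so higher reads as stronger inhibition. Of about 69,000 compounds tested this way, about 31 (0.045%) reached 50% or more in at least one test.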
ClpP1P2: 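Protease assay of ClpP1P2, read by the AMC dye that it sets free. Target: ClpP1P2, Mycobacterium tuberculosis (UniProt P9WPC5 and UniProt P9WPC3). Compounds at 50 µM. Higher reads as stronger inhibition, judged from the few compounds that gave an IC50. Most other retested compounds had strongly negative values. About 69,000 compounds were tested under these conditions; 0.015% (about 10) showed 50% or more at least once.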
Toxoplasma: 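Assay of Toxoplasma gondii numbers, read through their beta-galactosidase reporter with a colour substrate. Compounds at 10 µM. Higher reads as fewer parasites (inferred from which compounds were picked for retests). About 67,000 compounds were tested under these conditions; 0.38% (about 260) showed 50% or more at least once.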
PfKRS1: 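Enzyme assay of the cytosolic lysyl-tRNA synthetase in 384-well plates, read by luminescence. Target: Lysine-tRNA ligase, Plasmodium falciparum 3D7 (UniProt Q8IDJ8). Tested at 30 µM. Higher reads as stronger inhibition, judged from the few compounds that gave an IC50. Size under these conditions: about 69,000 compounds, about 49 of them at 50% or above in at least one test.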

| # | SMILES | Leishmania in macrophages | TcHisRS | ClpP1P2 | Toxoplasma | PfKRS1 |
|---|---|---|---|---|---|---|
| 1 | `O=C(CC(F)(F)F)NC(c1ccc(Cl)cc1)c1ncon1` (centres unmarked) | 4.409 | 2.618 | 1.579 | -45.64 | 2.997 |
| 2 | `Cn1ccnc1CN1CCC2(CC1)CC(Oc1cccnc1)C2` | - | 5.946 | 4.07 | - | 0.7831 |
| 3 | `Cc1nc(CC(=O)N(CCN2CCOCC2)Cc2ccco2)c(C)s1` | -0.2112 | 1.508 | 3.305 | -1.217 | 5.283 |
| 4 | `COc1ccc(CN2CCC3(CC2)CCN(CC2CC2)C3=O)cc1` | - | 3.759 | 8.08 | - | -2.328 |
| 5 | `CCCSc1ncc(Cl)c(C(=O)NC(CCSC)C(=O)O)n1` (centres unmarked) | 5.642 | -4.624 | 1.777 | 8.041 | 5.686 |
| 6 | `O=C([C@@H]1C[C@@H]2CCN(Cc3ccoc3)C[C@H]2O1)N1CCCC1` | - | 2.116 | -9.516 | - | 3.181 |
| 7 | `COc1ccccc1CC(C)(C)C(=O)NCC(=O)Nc1cccnc1` | 7.66 | 0.5181 | 2.402 | 7.555 | 0.5286 |
| 8 | `Cc1ccc(CN2CCC3(CC2)C(=O)Nc2ccccc23)s1.O=C(O)C(F)(F)F` | 7.529 | - | - | -34.43 | - |
| 9 | `Cc1nn(C)c(C)c1C(C)NC(=O)Nc1cccnc1N1CCCC1` (centres unmarked) | 1.149 | 2.256 | -2.837 | -4.652 | 3.468 |
| 10 | `Fc1ccc(N2CCCN(c3ccc(Cn4ccnc4)cn3)CC2)cc1` | 41.56 | 11.06 | 10.07 | 12.73 | 4.46 |
| 11 | `COc1ccc(CN(C)[C@@H]2CN(C(=O)c3cnn(C)c3)C[C@H]2O)cc1` | -2.595 | 5.319 | -2.228 | -8.099 | 1.629 |
| 12 | `CNc1cc(C)nc(C2CCN(CCO)CC2)n1` | -13.99 | -1.128 | -6.473 | 10.47 | 0.6865 |
| 13 | `O=C(O)C(F)(F)F.[H][C@@]12C[C@@H](c3nc(C4CC4)cs3)O[C@]1([H])CN(C(=O)c1cccn1C)C2` | 27.96 | - | - | -23.27 | - |
| 14 | `CCCn1nnnc1CN(CC)CC1COc2ccccc2O1` (centres unmarked) | 6.438 | 4.464 | -19.79 | -8.76 | 1.286 |
| 15 | `Cc1cnn(CC2CCCN2Cc2coc(-c3cccs3)n2)c1` (centres unmarked) | -4.367 | 5.785 | -11.84 | -1.533 | 5.436 |
| 16 | `O=C(O)C(F)(F)F.[H][C@@]12CCN(Cc3ccco3)CC[C@]1([H])[C@H](COCC1CC1)CN(C)C2=O` | 4.546 | - | - | 3.614 | - |
| 17 | `COc1cc(NC2CCS(=O)(=O)CC2)ncn1` | -83.46 | 6.098 | -13.93 | -27 | 3.566 |
| 18 | `O=S(=O)(NCc1ccc(S(=O)(=O)N2CCCC2)s1)c1ccc(Cl)cc1` | -9.644 | -5.263 | 4.882 | -0.1369 | 7.928 |
| 19 | `Cn1cc(CN2C[C@@H]3COC[C@]3(COc3ccc(C#N)cn3)C2)cn1` | - | 3.306 | 3.897 | - | 7.146 |
| 20 | `CCOc1ccc(CNCCCn2ccnc2)cc1Cl.Cl.Cl` | 68.16 | - | - | 10.97 | - |
| 21 | `Fc1cnccc1CN1CCCC2(CCN(c3ncccn3)CC2)C1` | - | 7.609 | -3.78 | - | 5.387 |
| 22 | `COc1cc(C)cc(C(C(=O)O)N(C)Cc2cnn(C)c2)c1OC` (centres unmarked) | 2.781 | 6.341 | -4.95 | 3.661 | 2.966 |
| 23 | `[H][C@@]12CN(C(=O)c3ccc(C)nc3)C[C@]1([H])OCCN2CC1CCCC1` | -34.43 | - | - | -19.41 | - |
| 24 | `COc1ccccc1NC(=O)CSC1CCc2ccccc2NC1=O` (centres unmarked) | 14.79 | 1.653 | 6.059 | 5.453 | 0.6661 |
| 25 | `COCC1CN(Cc2cnn(C)c2)Cc2nn(C)cc21.O=C(O)C(F)(F)F` (centres unmarked) | 31.53 | - | - | 1.367 | - |
| 26 | `Cc1nn(C)c(C)c1CN(CCO)C(=O)C1COc2ccccc2C1` (centres unmarked) | -39.95 | -7.027 | -10.44 | -12.65 | -5.664 |
| 27 | `Cc1cc(=O)n(CC(=O)Nc2cccc(Cl)c2)nc1C` | 3.23 | -2.513 | -17.59 | -0.2433 | -3.64 |
| 28 | `O=C(NCCN1CCOCC1)N(Cc1ccoc1)C1CCCCC1` | -5.469 | 4.04 | -2.54 | 8.083 | 2.465 |
| 29 | `Cc1cccc(Oc2nccnc2C2CCN(C(=O)C(C)(C)N)CC2)c1` | -9.485 and -7.875 | 2.198 | -15.19 | -10.83 | 1.583 |
| 30 | `[H][C@@]12CC[C@H](Oc3ccccc3F)[C@]1([H])CN(C(=O)c1cnco1)C2` | -0.5915 | - | - | 32.48 | - |
| 31 | `CCn1nc(C)c2c1cnn2CCNS(=O)(=O)Cc1ccccc1` | 21.27 | 0.4464 | -21.38 | -9.062 | 4.597 |
| 32 | `CC1(C)CN(CC(F)(F)F)CCN1CC(=O)NC1CCCC1` | 14.27 | 3.571 | -1.384 | 5.876 | 1.134 |
| 33 | `Cc1cc(N2CCN(Cc3cn(C)nc3C)CC2)cc(C2CCNC2)n1.Cl` (centres unmarked) | 14.31 | - | - | 2.293 | - |
| 34 | `COc1ncccc1NC(=O)N1CCC(c2ccc(O)cc2)CC1` | 23.73 | 7.143 | -4.306 | 4.57 | 8.089 |
| 35 | `CN(C)S(=O)(=O)N1C[C@@H]2COC[C@]2(COc2ccccn2)C1` | - | 4.762 | -8.597 | - | 1.085 |
| 36 | `CCCc1nc2c(c(C)c(C)n2Cc2ccccn2)c(N)c1CC` | 98.46 | -2.062 | 2.245 | 74.72 | -3.046 |
| 37 | `Cn1c(CC2CCS(=O)(=O)C2)nnc1SCCOc1ccccc1F` (centres unmarked) | -3.929 | -2.542 | -16.68 | 2.286 | 2.256 |
| 38 | `Cc1cc(C(=O)N2CCC3(C2)CN(c2ccsc2)C(=O)CN3C)[nH]n1.O=C(O)C(F)(F)F` (centres unmarked) | 24.77 | - | - | -6.176 | - |
| 39 | `[H][C@]1([C@H](O)c2ccc(NC(C)=O)cc2)COCC(=O)N1CC(C)C` | 22.45 | - | - | 2.454 | - |
| 40 | `COC(=O)CNC(=O)CCc1cc(Br)cs1` | 5.855 | 8.333 | -4.054 | 2.907 | 1.487 |
| 41 | `c1cnc(N2CCC3(CCN(CC4CCOCC4)CC3)C2)nc1` | - | 4 | -0.8303 | - | 3.944 |
| 42 | `Cc1nc(CN)cc(NCc2ccccc2-n2cncn2)n1` | 14.89 | 18.53 | -5.881 | -4.823 | 0.2898 |
| 43 | `CS(=O)(=O)c1ccc(O[C@H]2COCCN(Cc3ccncc3)C2)cc1` | 23.96 | 2.488 | -4.034 | -1.847 | 3.102 |
| 44 | `CCc1ccc(CN2CCN(c3ccc(C(N)=O)cn3)CC2)nc1` | -6.486 | 3.804 | 3.574 | -1.953 | -2.41 |
| 45 | `c1nc(COCC2CC2)c2n1CCCN(CC1CC1)C2` | - | 3.784 | -2.883 | - | 0.5221 |
| 46 | `Cc1noc(C)c1CN1CC[C@H]2C[C@H](c3nccs3)O[C@@H]2C1` | - | 5.882 | -3.475 | - | -0.7154 |
| 47 | `COCC1CCCCN1C(=O)c1cc(Cn2ccc3ccccc32)[nH]n1` (centres unmarked) | 6.928 | 6.726 | -24.35 | 3.689 | 2.729 |

Repeated from the top, 3 entries:

For O=C(CC(F)(F)F)NC(c1ccc(Cl)cc1)c1ncon1 (centres unmarked) the result was Leishmania in macrophages: 4.409%; TcHisRS: 2.618%; ClpP1P2: 1.579%; Toxoplasma: -45.64%; PfKRS1: 2.997%.
For Cn1ccnc1CN1CCC2(CC1)CC(Oc1cccnc1)C2 the result was TcHisRS: 5.946%; ClpP1P2: 4.07%; PfKRS1: 0.7831%.
For Cc1nc(CC(=O)N(CCN2CCOCC2)Cc2ccco2)c(C)s1 the result was Leishmania in macrophages: -0.2112%; TcHisRS: 1.508%; ClpP1P2: 3.305%; Toxoplasma: -1.217%; PfKRS1: 5.283%.

From ChEMBL document CHEMBL3988442, “University of Dundee, Small-Polar-MMV Screening Library” (2021).